The results in this text go back to paper PMC5696369.

Amino acid sequences for entries named in this document (tags omitted).
UniProt O00471: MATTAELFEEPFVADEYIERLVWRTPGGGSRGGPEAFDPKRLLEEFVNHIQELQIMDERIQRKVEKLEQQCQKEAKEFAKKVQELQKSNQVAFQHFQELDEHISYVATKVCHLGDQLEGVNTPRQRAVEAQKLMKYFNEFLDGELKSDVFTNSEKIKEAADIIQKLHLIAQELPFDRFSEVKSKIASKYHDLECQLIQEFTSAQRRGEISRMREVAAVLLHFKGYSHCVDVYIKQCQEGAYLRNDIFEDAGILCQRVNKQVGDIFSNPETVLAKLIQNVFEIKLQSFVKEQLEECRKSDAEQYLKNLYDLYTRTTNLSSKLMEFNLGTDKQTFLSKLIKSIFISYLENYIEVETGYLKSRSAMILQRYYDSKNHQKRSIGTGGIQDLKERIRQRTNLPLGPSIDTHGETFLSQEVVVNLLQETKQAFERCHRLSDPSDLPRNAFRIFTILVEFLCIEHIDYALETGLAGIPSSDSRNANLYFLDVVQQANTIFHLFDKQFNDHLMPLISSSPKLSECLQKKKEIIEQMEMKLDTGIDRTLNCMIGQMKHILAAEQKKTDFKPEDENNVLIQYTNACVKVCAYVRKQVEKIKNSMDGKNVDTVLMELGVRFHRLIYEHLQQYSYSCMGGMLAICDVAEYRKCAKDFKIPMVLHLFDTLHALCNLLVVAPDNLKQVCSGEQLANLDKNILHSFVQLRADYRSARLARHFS
UniProt Q9UPT5: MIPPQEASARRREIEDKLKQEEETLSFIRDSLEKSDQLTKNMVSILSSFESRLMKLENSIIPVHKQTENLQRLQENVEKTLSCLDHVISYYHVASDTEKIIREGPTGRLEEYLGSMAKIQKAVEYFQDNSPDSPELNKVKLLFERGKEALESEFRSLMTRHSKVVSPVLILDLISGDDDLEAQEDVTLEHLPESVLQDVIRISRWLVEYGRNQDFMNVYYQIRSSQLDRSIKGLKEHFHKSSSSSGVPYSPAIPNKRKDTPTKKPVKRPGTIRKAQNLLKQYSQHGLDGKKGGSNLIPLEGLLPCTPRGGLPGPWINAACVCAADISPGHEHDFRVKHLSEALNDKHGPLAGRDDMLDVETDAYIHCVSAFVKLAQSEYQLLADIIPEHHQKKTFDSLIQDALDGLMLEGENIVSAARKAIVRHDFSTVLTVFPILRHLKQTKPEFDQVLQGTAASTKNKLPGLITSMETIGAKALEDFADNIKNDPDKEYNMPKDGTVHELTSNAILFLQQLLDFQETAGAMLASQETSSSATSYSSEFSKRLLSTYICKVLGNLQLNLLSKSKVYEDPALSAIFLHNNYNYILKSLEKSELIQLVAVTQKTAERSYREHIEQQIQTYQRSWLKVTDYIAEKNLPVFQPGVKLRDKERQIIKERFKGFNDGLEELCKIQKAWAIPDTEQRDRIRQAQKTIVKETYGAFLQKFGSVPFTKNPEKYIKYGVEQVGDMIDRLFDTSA

Experiment [1] has as its target T1, FLAG-tagged DPPA3 WT (1-150 aa)-mVenus (mouse) (UniProt Q8QZY3).
T1 sequence: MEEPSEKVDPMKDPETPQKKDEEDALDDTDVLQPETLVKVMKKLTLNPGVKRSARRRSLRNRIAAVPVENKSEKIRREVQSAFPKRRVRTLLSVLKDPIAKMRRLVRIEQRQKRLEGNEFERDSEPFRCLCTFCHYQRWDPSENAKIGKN
Kind of experiment: affinity purification with mass spectrometry; anti-FLAG M2 affinity gel on lysates of transiently transfected HEK 293T cells (IP buffer: 50 mM Tris pH 7.4, 150 mM NaCl, 10% glycerol, 1% Triton X-100), 4 °C; washed twice with 500 mM NaCl buffer, then six times with IP buffer; eluted with FLAG …; CBB-stained bands of 75-100 kDa cut out and identified by LC-MS/MS.

For experiment [2], the target named is T2, FLAG-tagged DPPA3 1-60 aa-mVenus (mouse) (UniProt Q8QZY3).
T2 sequence: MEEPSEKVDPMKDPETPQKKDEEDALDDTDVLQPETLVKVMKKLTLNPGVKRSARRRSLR
Described as above.

No constants are given. Whether binding was seen depends on the method and setting. In cells and extracts the contact can be indirect. A yes stands for co-enrichment or nearness to the bait. Other partners may have been found. Where a sequence is shown, tags or fusion partners need not be part of it.

Take EXOC5 (from UniProt O00471 1-708): the binding entry in experiment [1] and in experiment [2] was “binds” each time.
As to EXOC7 (from UniProt Q9UPT5 1-735), the binding entry in experiment [1] and in experiment [2] was “binds” throughout.
